# Measured values taken from publication PMC7862700.
# The list shows a part of the results. The source does not settle which construct or isoform was used.
# Biological target: T1, ETS1 (UniProt P14921)
# T1 sequence: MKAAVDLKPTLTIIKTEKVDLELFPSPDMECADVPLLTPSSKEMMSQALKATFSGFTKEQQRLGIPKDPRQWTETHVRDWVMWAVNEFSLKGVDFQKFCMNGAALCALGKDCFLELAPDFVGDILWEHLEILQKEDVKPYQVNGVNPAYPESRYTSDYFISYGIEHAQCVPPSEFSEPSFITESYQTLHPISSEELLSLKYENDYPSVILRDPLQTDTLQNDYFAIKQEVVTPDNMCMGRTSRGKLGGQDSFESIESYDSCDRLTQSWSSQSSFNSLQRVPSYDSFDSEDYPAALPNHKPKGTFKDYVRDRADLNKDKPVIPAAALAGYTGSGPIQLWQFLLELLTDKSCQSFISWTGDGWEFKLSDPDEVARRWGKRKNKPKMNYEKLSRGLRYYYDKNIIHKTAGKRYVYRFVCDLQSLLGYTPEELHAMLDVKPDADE
# Assay: DAPPL (digital affinity profiling via proximity ligation, sequencing)
# Settings: 10 mM Tris-HCl pH 7.5, 50 mM NaCl, 1 mM DTT, 4% glycerol, room temperature, 30 min; GST-TFs on glutathione beads, 16-mer random dsDNA library, 0.1% …; high values mean tight binding; double strand, one strand shown; scale: fold enrichment (6-mer frequency, TF over GST control)
row,Sequence,binding signal
1,TAATTT,1.48
2,TAATAA,1.18
3,TGGCCT,1.6
4,CCTAAA,1.37
5,TTGATA,1.19
6,TCCCTC,1.42
7,TTGTCC,1.46
8,CACCAT,1.03
9,CTTCAG,1.2
10,TAGTAA,1.1
11,ACGCTG,1.14
12,CCGCCT,1.51
13,CCGACC,1.6
14,CTTACG,1.18
15,ATGCGG,1.04
16,CCTGTT,1.79
17,TGCAAA,1.1
18,TTAATG,1.18
19,TACGCT,1.28
20,ACTGGC,1.2

# Looked up above.
# binding signal, TGCAAA reads 1.1
# binding signal, CTTACG reads 1.18

# The list continues.

row,Sequence,binding signal
1,TATCGT,1.15
2,CACGAA,1.14
3,CTCAGA,1.19
4,GACCTA,1.18
5,CACTTA,1.29
6,CCCGAC,1.32
7,CGATTT,1.2
8,TGCTAC,1.31
9,ACATAT,1.32
10,CCTATG,1.28
11,AAGTAA,1.31
12,CCTCAT,1.35
13,CATACT,1.39
14,TAACAC,1.25
15,TAATGA,1.08
16,CATATA,1.1
17,CTGTTA,1.3
18,TTGAAT,1.15
19,ACATCT,1.29
